{
  "sequences": {"note": "Amino acid sequences for entries named in this document (tags omitted). Residues count along the entry.", "UniProt P02791, 2-175 limits assumed": "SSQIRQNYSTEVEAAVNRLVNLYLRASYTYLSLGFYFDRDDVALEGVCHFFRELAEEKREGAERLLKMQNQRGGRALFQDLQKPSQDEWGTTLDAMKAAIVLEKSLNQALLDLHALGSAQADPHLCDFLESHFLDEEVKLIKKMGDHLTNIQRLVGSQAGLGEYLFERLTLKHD"},
  "source": "PubChem BioAssay AID489008",
  "about": "(National Center for Advancing Translational Sciences (NCATS), 2010)",
  "note": "The shares of active, inactive and inconclusive entries below differ from those in the screen. Where the call is inconclusive, the potency comes from a doubtful curve fit. The source made the active and inactive calls. Calls come from the whole dose curve; as a rule, active = well fitted inhibition curve with a large enough effect; inconclusive = small, poorly fitted or top-dose-only effect; inactive = flat fitted curve, though single readings scatter. Potency is the fitted concentration of half-maximal effect.",
  "data": [
    {"target": "Ferritin light chain (Equus caballus) (UniProt P02791)", "assay": "Confirmation Assay for Identification of Novel General Anesthetics; note: nearly all actives have a fitted effect of over 40% in size", "details": "apoferritin 1-aminoanthracene fluorescence displacement", "method_in_brief": "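Competitive displacement of profluorescent 1-aminoanthracene from 10 uM horse-spleen apoferritin in 50% saturated 1-AMA/PBS; 10 min RT, fluorescence Ex 380/Em 535. Normalized to free 1-AMA and complex; four-parameter Hill fit.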", "values": [
      {"smiles": "O=C(COc1ccccc1)NC1CCCCCCC1", "Potency": "inconclusive: 35.5 µM [inhibitor, partial curve]"},
      {"smiles": "CC1CCCN(C(=O)c2cc3c(Cl)nc4ccccc4c3s2)C1", "note": "(stereo not drawn)", "Potency": "inconclusive: 44.7 µM [inhibitor, partial curve]"},
      {"smiles": "Cc1ccc(NC(=O)N2CCCCCC2)c(C)c1", "Potency": "active: 15.8 µM"},
      {"smiles": "O=C(Nc1cccc(Cl)c1)OCc1ccccn1", "Potency": "inconclusive: 35.5 µM [inhibitor, partial curve]"},
      {"smiles": "CC1(C2(O)CC(c3ccccc3)ON2)CCCCC1", "note": "(stereo not drawn)", "Potency": "inconclusive: 20 µM [inhibitor, partial curve]"},
      {"smiles": "COCCCNC(=O)Cn1nc(-c2ccc(C)cc2)ccc1=O", "Potency": "active: 14.1 µM"},
      {"smiles": "NC(=O)COC(=O)CC12CC3CC(CC(C3)C1)C2", "Potency": "active: 15.8 µM"},
      {"smiles": "c1ccc(Nc2nc3ccccc3o2)cc1", "Potency": "inconclusive: 39.8 µM [inhibitor, partial curve]"},
      {"smiles": "O=C(c1cccc(Cl)c1)N1CCCc2ccccc21", "Potency": "inconclusive: 31.6 µM [inhibitor, partial curve]"},
      {"smiles": "CC(C)(C)C1CCc2c(sc(N)c2C(N)=O)C1", "note": "(stereo not drawn)", "Potency": "inconclusive: 39.8 µM [inhibitor, partial curve]"},
      {"smiles": "CC(=O)Nc1ccc(C(=O)OCCC(C)C)cc1", "Potency": "inconclusive: 20 µM [inhibitor, partial curve]"},
      {"smiles": "Fc1cccc(NC(=S)N2CCCCC2)c1", "Potency": "inconclusive: 17.8 µM [inhibitor, partial curve]"},
      {"smiles": "CNc1cc(N2CCCCCC2)ccc1[N+](=O)[O-]", "Potency": "inconclusive: 28.2 µM [inhibitor, partial curve]"},
      {"smiles": "C=CCOC(=O)C1CC=CCC1C(=O)Oc1ccc(F)cc1F", "note": "(stereo not drawn)", "Potency": "inconclusive: 25.1 µM [inhibitor, partial curve]"},
      {"smiles": "Cc1c(Br)cc(-c2nnco2)cc1Br", "Potency": "inconclusive: 15.8 µM [inhibitor, partial curve]"},
      {"smiles": "Cc1ccc(C(=O)COC(=O)CNC(=O)c2cccs2)cc1C", "Potency": "inconclusive: 22.4 µM [inhibitor, partial curve]"},
      {"smiles": "NC(=O)c1cccn1Cc1ccccc1Cl", "Potency": "inconclusive: 14.1 µM [inhibitor, partial curve]"},
      {"smiles": "O=C(CSCc1ccccc1Cl)N/N=C/c1ccco1", "Potency": "inconclusive: 14.1 µM [inhibitor, partial curve]"},
      {"smiles": "CC1Cc2ccccc2N1C(=O)CSc1nnnn1C", "note": "(stereo not drawn)", "Potency": "active: 28.2 µM"},
      {"smiles": "O=C(Cc1ccc(F)cc1)OCC(=O)c1cc2ccccc2o1", "Potency": "inconclusive: 39.8 µM [inhibitor, partial curve]"},
      {"smiles": "COc1ccc(OC)c(CNc2ccc(F)c(Cl)c2)c1", "Potency": "inconclusive: 28.2 µM [inhibitor, partial curve]"},
      {"smiles": "CC(=O)Nc1ccc(C(=O)OCC(=O)NC2CCCCCCC2)cc1", "Potency": "active: 15.8 µM"},
      {"smiles": "O=C1Nc2ccc(Cl)cc2/C1=C/C1CC=CCC1", "note": "(stereo not drawn)", "Potency": "inconclusive: 28.2 µM [inhibitor, partial curve]"}
    ]}
  ]
}
